Experimental data: patent US20210290629A1 (priority 2016, published 2021)
For at least one compound, name, drawing or mass did not settle the structure.

Test system: GFP-expressing Mycobacterium tuberculosis H37Rv
Assay type: cell-based
Settings: FIG. 1, indicated concentrations and time points, two independent experiments

CO[C@H]1/C=C/O[C@@]2(C)Oc3c(C)c(O)c4c(O)c(c(/C=N/N5CCN(C)CC5)c(O)c4c3C2=O)NC(=O)/C(C)=C\C=C\[C@H](C)[C@H](O)[C@@H](C)[C@@H](O)[C@@H](C)[C@H](OC(C)=O)[C@@H]1C [Rifampicin]
growth of Mycobacterium tuberculosis (Mtb) in liquid culture (fluorescence signal intensity at 528 nm): impair mycobacterial growth
